Test results: PMC3576711
These are yes or no findings as the source states them, for the method shown. For part of these data: Binding can be weak; no strength is given. Sequences can lack the tags named with a protein. One block for each molecule: values may come before it.

How the values were obtained:
Assay in all cases: two-hybrid; yeast strain PJ69-4a; AP µ subunits fused to the Gal4 activation domain, tails fused to the Gal4 DNA binding domain; growth on -Trp-Leu-His or -Trp-Leu-Ade plates at 30°C recorded at day 3
[1] = target: T1, UNC93B1 C-terminal cytosolic region (515-598 a.a.) fused to the Gal4 DNA binding domain (mouse) (UniProt Q8VCW4)
T1 sequence: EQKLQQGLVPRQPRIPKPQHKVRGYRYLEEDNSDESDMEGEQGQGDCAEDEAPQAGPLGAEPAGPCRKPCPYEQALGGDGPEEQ

[2] = target: TLR7 cytosolic region Y892A fused to the Gal4 DNA binding domain (mouse)
[3] = target: TLR7 cytosolic region (mouse 862-1061 a.a.) fused to the Gal4 DNA binding domain (mouse)

- binding [1]: no binding
Molecule: AP-3Aμ fused to the Gal4 activation domain

- binding [2]: no binding
- binding [3]: binds
B1: AP-4μ fused to the Gal4 activation domain (protein, UniProt O00189 1-453)
chain: MISQFFILSSKGDPLIYKDFRGDSGGRDVAELFYRKLTGLPGDESPVVMHHHGRHFIHIRHSGLYLVVTTSENVSPFSLLELLSRLATLLGDYCGSLGEGTISRNVALVYELLDEVLDYGYVQTTSTEMLRNFIQTEAVVSKPFSLFDLSSVGLFGAETQQSKVAPSSAASRPVLSSRSDQSQKNEVFLDVVERLSVLIASNGSLLKVDVQGEIRLKSFLPSGSEMRIGLTEEFCVGKSELRGYGPGIRVDEVSFHSSVNLDEFESHRILRLQPPQGELTVMRYQLSDDLPSPLPFRLFPSVQWDRGSGRLQVYLKLRCDLLSKSQALNVRLHLPLPRGVVSLSQELSSPEQKAELAEGALRWDLPRVQGGSQLSGLFQMDVPGPPGPPSHGLSTSASPLGLGPASLSFELPRHTCSGLQVRFLRLAFRPCGNANPHKWVRHLSHSDAYVIRI
